Test results: PMC2845650
Results are given in words; binding and its absence hold for the method and conditions named. Binding seen in cells or lysates may run through a third protein.

Sequences of proteins named here, by UniProt entry; tags and fusion partners are left off. A change or cut given only in a name is not applied to a line headed by its entry. A line that says so, or that is headed by a name, gives the form on record, which may keep a tag or linker.
human Coxsackie and Adenovirus Receptor, exon 8 isoform (hCAR^Ex8) (P78310, form named): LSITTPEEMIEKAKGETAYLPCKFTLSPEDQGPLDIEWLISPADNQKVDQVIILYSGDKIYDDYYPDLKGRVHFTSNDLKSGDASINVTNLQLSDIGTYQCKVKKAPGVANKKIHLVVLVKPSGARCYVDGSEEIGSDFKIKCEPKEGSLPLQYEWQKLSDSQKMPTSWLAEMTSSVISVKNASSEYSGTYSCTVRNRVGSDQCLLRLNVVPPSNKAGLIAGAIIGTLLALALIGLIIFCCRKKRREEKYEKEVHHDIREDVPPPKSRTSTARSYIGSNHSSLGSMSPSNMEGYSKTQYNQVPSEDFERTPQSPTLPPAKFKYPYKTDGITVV
UniProt Q9NRD5: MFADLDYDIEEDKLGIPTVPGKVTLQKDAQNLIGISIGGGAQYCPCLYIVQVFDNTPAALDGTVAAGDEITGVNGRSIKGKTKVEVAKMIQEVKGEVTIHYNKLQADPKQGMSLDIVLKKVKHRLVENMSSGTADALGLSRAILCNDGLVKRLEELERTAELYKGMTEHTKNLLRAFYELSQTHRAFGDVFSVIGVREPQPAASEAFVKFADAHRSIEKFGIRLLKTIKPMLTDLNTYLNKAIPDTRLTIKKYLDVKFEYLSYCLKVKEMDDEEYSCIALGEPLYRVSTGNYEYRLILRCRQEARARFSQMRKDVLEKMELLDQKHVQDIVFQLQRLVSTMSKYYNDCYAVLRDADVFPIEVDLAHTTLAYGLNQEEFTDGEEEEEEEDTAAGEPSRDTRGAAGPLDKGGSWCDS

Target: human Coxsackie and Adenovirus Receptor, exon 8 isoform (hCAR^Ex8) (human) (UniProt P78310)
Assay: co-IP; COS-7 cells co-transfected by electroporation, lysed 2 days later (50mM Tris-HCl pH 7.5, 137mM NaCl, 1% Triton X-100, 5mM EDTA, 1mM EGTA); supernatant with antibody (RmcB against the hCAR extracellular domain, GFP antibody, control MopC) at 4°C overnight, protein A or G sepharose; Western blot

PICK1-GFP (from UniProt Q9NRD5 1-415)
binding: no binding
